Values from PubChem BioAssay AID652243 (Drosophila RNAi Screening Center, 2013).

Purpose: 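Fly regulators of androgen-dependent reporter output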 (primary screen)
Cells: Drosophila S2R+ cells
Reagent: long dsRNA against Drosophila genes
Timing: 72 h (48 h, then 24 h hormone)
Challenge: synthetic androgen R1881 at 10 nM for 24 h
Read-out: 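Firefly light from an androgen-responsive reporter and Renilla control light per well, raw and unnormalised, for each of two replicates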
Reading the numbers: firefly reporter light: higher = more light from androgen-responsive reporter; Renilla control light: higher = more constitutive control signal (cell number, transfection)
Rule for the call: 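Hit when the log firefly-to-Renilla ratio dropped or increased by a fixed fold versus the mean of GFP or LacZ controls across duplicate plates; lowering cut given as 1.5 and as 3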
Meaning of the calls: active = hit: reporter lowered or raised; inactive = no hit
The deposit covers about 24,000 reagents; this is a random part of those with a known target gene and a result. Over the whole deposit, 246 (1%) are marked active. 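Plates not normalised; calls are printed but the firefly/Renilla ratio behind them is not deposited; fold cut for lowering reported inconsistently.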 The raw values are shown without normalisation. A plus sign joins genes that one reagent is predicted to hit. The record does not give: the amount of reagent.

predicted target	DRSC id	firefly reporter light, replicate 1	firefly reporter light, replicate 2	Renilla control light, replicate 1	Renilla control light, replicate 2	activity call
CG6479	DRSC10647	45582	17603	3.22e5	1.95e5	inactive
Rgk3	DRSC04250	3.95e5	3.85e5	2.98e6	2.55e6	inactive
Rgk3	DRSC04254	2.23e5	1.96e5	1.78e6	1.88e6	inactive
Rgk3	DRSC04255	3.81e5	4.36e5	2.95e6	2.19e6	inactive
Rgk3	DRSC28131	4.37e5	4.62e5	2.03e6	1.75e6	inactive
CG43155	DRSC19642	3.00e5	3.21e5	3.47e6	2.76e6	inactive
CG43155	DRSC19777	5.06e5	4.81e5	4.00e6	3.37e6	inactive
LSm3	DRSC15920	1.74e5	1.74e5	2.51e6	2.78e6	inactive
E(spl)m5-HLH	DRSC16695	1.94e5	1.59e5	2.43e6	2.05e6	inactive
E(spl)m5-HLH	DRSC28232	3.86e5	5.27e5	1.47e6	1.92e6	inactive
Cyp6g2	DRSC07387	2.21e5	1.44e5	1.47e6	1.35e6	inactive
Cyp6g2	DRSC29325	3.46e5	4.56e5	9.25e5	9.25e5	inactive
Or82a	DRSC11996	3.39e5	3.43e5	7.67e5	6.36e5	inactive
mil	DRSC15696	2.15e5	2.06e5	3.12e6	3.61e6	inactive
Gld2	DRSC23037	8.78e5	1.15e6	1.92e6	2.17e6	inactive
Gld2	DRSC27759	3.45e5	2.02e5	4.87e5	5.58e5	inactive
CG2021	DRSC08546	1.78e5	1.60e5	1.42e6	1.73e6	inactive
CG2021	DRSC27282	2.45e5	2.60e5	5.23e5	6.28e5	inactive
Cap-D3	DRSC02349	91113	73982	9.14e5	9.82e5	inactive
Cap-D3	DRSC27018	3.67e5	2.74e5	8.83e5	5.96e5	inactive
ppk20	DRSC16260	1.95e5	1.87e5	2.36e6	2.43e6	inactive
ppk20	DRSC28819	4.35e5	5.46e5	1.44e6	1.73e6	inactive
Adck1	DRSC04394	8.18e5	7.95e5	1.33e6	1.39e6	active
Adck1	DRSC36882					inactive
CG7806	DRSC03071	1.32e6	1.24e6	2.02e6	1.83e6	inactive
Sry-delta	DRSC24964	3.34e5	3.74e5	8.27e5	4.89e5	inactive
scpr-C + scpr-B + scpr-A	DRSC26639	4.70e5	4.96e5	8.03e5	7.95e5	inactive
CG9119	DRSC08620	1.01e6	9.67e5	1.30e6	1.31e6	inactive
CG9119	DRSC25290	5.63e5	8.90e5	7.90e5	1.19e6	inactive
CG3270	DRSC04988	6.70e5	7.02e5	1.25e6	1.36e6	inactive
CG4115	DRSC15545	1.68e5	1.99e5	2.40e6	2.85e6	inactive
PKD	DRSC16200	1.67e5	2.59e5	1.60e6	2.23e6	inactive
PKD	DRSC36937					inactive
PKD	DRSC36938					inactive
CG34376	DRSC14696	2.61e5	2.24e5	3.12e6	3.63e6	inactive
CG34376	DRSC14701	2.19e5	2.58e5	2.74e6	3.13e6	inactive
CG34376	DRSC24983	8.05e5	1.16e6	9.01e5	8.82e5	inactive
CG34376	DRSC25207	5.08e5	1.02e6	7.90e5	7.20e5	inactive
CG4497	DRSC02754	7.03e5	7.23e5	1.79e6	1.93e6	inactive
Slu7	DRSC14729	1.89e5	1.95e5	2.94e6	3.54e6	inactive
Slu7	DRSC23582	8.51e5	9.14e5	9.59e5	9.16e5	inactive

Records listed above with an active call, once more:
predicted target	DRSC id	firefly reporter light, replicate 1	firefly reporter light, replicate 2	Renilla control light, replicate 1	Renilla control light, replicate 2	activity call
Adck1	DRSC04394	8.18e5	7.95e5	1.33e6	1.39e6	active
